This assay relates to MCF-7. Kind of assay: Cytotoxic assay, Adriamycin in sensitive breast carcinoma cells. The format is cell-based. The following applies: Homo sapiens, MCF7; sensitive MCF-7 cells, no chemosensitizer; read-out: ADR IC50. Here is the method: Cell Culture: HCT116/VM46 cells were selected from human colon carcinoma HCT116 cell line for resistance to VM26 and MCF-7/ADR cells were selected from human breast carcinoma MCF-7 cell line for resistance to Adriamycin. […] The cell lines were grown in tissue culture flasks containing McCoy's 5A medium and 10% fetal bovine serum. Cells were maintained at 37°C in a humidified atmosphere containing 5% C02 and subcultured every 5 days.
Cytotoxic Assay: The cells were seeded in 96 well microtiter plates at 5x10^3 cells per well and allowed to grow for 24 hours at 37 °C. Cells were then incubated with decreasing amounts of antitumor agents: Adriamycin (100 µM, maximal concentration) or actinomycin D (17.6 ng/ml), for MCF-7 and HCT-116 cells, respectively. Chemosensitizers were added at variable concentrations ranging from 0.08 µM to […]. In parallel, verapamil was used as positive control at the same concentrations. After 48 hours of incubation, the cells were washed, fixed and stained with crystal violet. Absorbance was read by Molecular Devices' microtiter plate reader at the wavelength of 595nm. The IC50 value (50% inhibition of cell growth) was determined from relative survival rates resulted from two to three independent experiments. […]

From patent EP0529395A2, “Benzamide multidrug resistance reversing agents” (Bristol-Myers Squibb Company, priority 1991, dated 1993) come the findings set out here.

Turning to `COc1cccc2c1C(=O)c1c(O)c3c(c(O)c1C2=O)C[C@@](O)(C(=O)CO)C[C@@H]3O[C@H]1C[C@H](N)[C@H](O)[C@H](C)O1` [ADR, Adriamycin], the IC50 was 360 nM.
